Test results taken from publication PMC7862700.
The entries are a selection whose mix differs from that of the whole data set. At the low end of the ranking, values are background and their order means little.

Legend:
ELK3 = molecular target: T1, ELK3 (UniProt P41970); experiment: DAPPL (digital affinity profiling via proximity ligation, sequencing); conditions: 10 mM Tris-HCl pH 7.5, 50 mM NaCl, 1 mM DTT, 4% glycerol, room temperature, 30 min; GST-TFs on glutathione beads, 16-mer random dsDNA library, 0.1% …; high values mean tight binding; double strand, one strand shown; scale: fold enrichment (6-mer frequency, TF over GST control)
T1 sequence: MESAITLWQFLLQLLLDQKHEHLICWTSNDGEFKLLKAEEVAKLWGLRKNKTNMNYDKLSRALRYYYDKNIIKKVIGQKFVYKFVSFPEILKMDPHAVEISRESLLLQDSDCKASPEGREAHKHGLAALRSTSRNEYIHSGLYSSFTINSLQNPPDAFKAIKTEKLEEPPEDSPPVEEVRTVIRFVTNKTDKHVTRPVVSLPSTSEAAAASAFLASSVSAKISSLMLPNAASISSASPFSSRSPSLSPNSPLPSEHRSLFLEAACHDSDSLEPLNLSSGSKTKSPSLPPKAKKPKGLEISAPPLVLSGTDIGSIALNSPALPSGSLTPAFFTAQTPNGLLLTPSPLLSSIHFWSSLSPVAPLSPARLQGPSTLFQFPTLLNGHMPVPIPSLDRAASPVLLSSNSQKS

ETV3 = molecular target: T2, ETV3 (UniProt P41162-2); experiment: as above; conditions: 10 mM Tris-HCl pH 7.5, 50 mM NaCl, 1 mM DTT, 4% glycerol, room temperature, 30 min; GST-TFs on glutathione beads, 16-mer random dsDNA library, 0.1% …; high values mean tight binding; double strand, one strand shown; scale: fold enrichment (6-mer frequency, TF over GST control)
T2 sequence: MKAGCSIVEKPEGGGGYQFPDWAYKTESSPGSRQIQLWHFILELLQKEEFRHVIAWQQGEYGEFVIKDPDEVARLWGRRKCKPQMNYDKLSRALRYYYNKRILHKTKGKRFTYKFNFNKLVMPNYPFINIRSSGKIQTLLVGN

GCTAGC
binding signal (ELK3): 1.22
binding signal (ETV3): 1.16

GGTTCA
binding signal (ELK3): 1.03
binding signal (ETV3): 1.09

TATTAC
binding signal (ETV3): 1.24

TGCGGA
binding signal (ETV3): 1.54

TAAAAA
binding signal (ELK3): 1.32
binding signal (ETV3): 1.25

GGAAGA
binding signal (ETV3): 1.24

GTTAAG
binding signal (ELK3): 1.05
binding signal (ETV3): 1.18

ATTTAG
binding signal (ELK3): 1.09
binding signal (ETV3): 1.12

AGCGTC
binding signal (ETV3): 1.01

GGCTTG
binding signal (ELK3): 0.998
binding signal (ETV3): 0.988

CTCCGT
binding signal (ELK3): 1.38
binding signal (ETV3): 1.22

CCCGAT
binding signal (ELK3): 1.06
binding signal (ETV3): 1.21

CTCCAG
binding signal (ELK3): 1.29
binding signal (ETV3): 1.23

TAGTGG
binding signal (ELK3): 1.4
binding signal (ETV3): 1.1

TTTAAC
binding signal (ELK3): 1.21
binding signal (ETV3): 1.21

CCTTGA
binding signal (ETV3): 1.19

TATGTT
binding signal (ELK3): 1.19
binding signal (ETV3): 1.26

TAATCG
binding signal (ELK3): 1.07
binding signal (ETV3): 0.981

CATTCG
binding signal (ELK3): 1.24
binding signal (ETV3): 1.27

AGTGTT
binding signal (ELK3): 0.975
binding signal (ETV3): 1.08

TGGCTC
binding signal (ETV3): 1.44

CATGCC
binding signal (ETV3): 1.22

AGCACT
binding signal (ELK3): 1.62
binding signal (ETV3): 1.39

TACAGA
binding signal (ELK3): 1.06

ACTCAA
binding signal (ELK3): 1.31

CTACGC
binding signal (ELK3): 1.56

CGTTTT
binding signal (ELK3): 1.12

TCACCA
binding signal (ELK3): 1.22

TTGGTT
binding signal (ELK3): 1.43

GTGCCT
binding signal (ELK3): 0.994

CCGTAT
binding signal (ELK3): 1.32

ATCTTG
binding signal (ELK3): 1.41

CCACTA
binding signal (ELK3): 1.22

ACGTTG
binding signal (ELK3): 1.01

GAAGAA
binding signal (ELK3): 1.13

GAAGTC
binding signal (ELK3): 1.19

CCGTTT
binding signal (ELK3): 1.35

TTCGAG
binding signal (ELK3): 1.3

ATACAT
binding signal (ELK3): 1.32

CTTACT
binding signal (ELK3): 1.34

ACTCAT
binding signal (ELK3): 1.34

CCGCAT
binding signal (ELK3): 1.6

CTATCG
binding signal (ELK3): 1.08

AACGCC
binding signal (ELK3): 0.988

TCTACA
binding signal (ELK3): 1.23

ACCACA
binding signal (ELK3): 1.14

TGTGCA
binding signal (ELK3): 0.963

TTATTA
binding signal (ELK3): 1.2

CCTTAC
binding signal (ELK3): 1.22

ACGTTT
binding signal (ELK3): 1.2

CTTCCA
binding signal (ELK3): 1.58

TGGTCC
binding signal (ELK3): 1.15

TTCATT
binding signal (ELK3): 1.23

TCCCGA
binding signal (ELK3): 1.35

AAAGTT
binding signal (ELK3): 1.17

TAGCTG
binding signal (ELK3): 0.92

GCGCCT
binding signal (ELK3): 1.05

ATTCAA
binding signal (ELK3): 1.39

CATTAA
binding signal (ELK3): 0.908

TGATTT
binding signal (ELK3): 1.11

CTGGCA
binding signal (ELK3): 1.43

TCACGT
binding signal (ELK3): 1.16

CCGTTC
binding signal (ELK3): 1.4
